{
  "source": "patent US10016372B2",
  "about": "(priority 2016, dated 2018)",
  "origin": "cited, not measured here",
  "note": "Some of these results come from one statement about several compounds together. Starred links: 1 amine or outer side, 2 acyl side, 3 side chain; linkers in the order of their positions; H or OH if unused. Positions of bridges follow the written chain, without caps; N, C: chain ends. Non-standard residues stand in square brackets, D forms with d. Residues, ends and D or L forms follow the SMILES beside them. *: point of attachment. pTerphenylCO(4''-OnC5H11) = CCCCCOc1ccc(-c2ccc(-c3ccc(C(=O)*)cc3)cc2)cc1; Orn(4R-OH,5R-OH) = O=C([C@H](C[C@@H](O)[C@@H](O)N[*:3])N[*:1])[*:2]; hTyr(3S-OH,4S-OH) = N[C@H](C(=O)O)[C@H](O)[C@@H](O)c1ccc(O)cc1; Pro(3S-OH,4S-Me) = C[C@H]1CN[C@H](C(=O)O)[C@H]1O; Hyp = O=C(O)[C@@H]1C[C@@H](O)CN1",
  "data": [
    {"conditions": "Schulz et al., Critical Care 2012 and other references", "values": [
      {"smiles": "C[C@@H]1[C@H](O)[C@@H](C)/C=C/C=C/C=C/C=C/C=C/C=C/C=C/[C@H](O[C@@H]2O[C@H](C)[C@@H](O)[C@H](N)[C@@H]2O)C[C@@H]2O[C@](O)(C[C@@H](O)C[C@@H](O)[C@H](O)CC[C@@H](O)C[C@@H](O)CC(=O)O[C@H]1C)C[C@H](O)[C@H]2C(=O)O", "note": "[amphotericin]", "half-life": "greater than 48 hours"},
      {"smiles": "CCCCCOc1ccc(-c2ccc(-c3ccc(C(=O)N[C@H]4C[C@@H](O)[C@@H](O)NC(=O)[C@@H]5[C@@H](O)[C@@H](C)CN5C(=O)[C@H]([C@@H](C)O)NC(=O)[C@H]([C@H](O)[C@@H](O)c5ccc(O)cc5)NC(=O)[C@@H]5C[C@@H](O)CN5C(=O)[C@H]([C@@H](C)O)NC4=O)cc3)cc2)cc1", "note": "[anidulafungin] ({pTerphenylCO(4''-OnC5H11)}-[Orn(4R-OH,5R-OH)]T[Hyp][hTyr(3S-OH,4S-OH)]T[Pro(3S-OH,4S-Me)]; lactam 1-C)", "half-life": "greater than 48 hours"},
      {"smiles": "NC(=O)N1c2ccccc2C=Cc2ccccc21", "note": "[carbamazepine]", "half-life": "greater than 48 hours"},
      {"smiles": "CCCCCCCCc1ccc(CCC(N)(CO)CO)cc1", "note": "[fingolimod]", "half-life": "greater than 48 hours"},
      {"smiles": "CCC1(c2ccccc2)C(=O)NC(=O)N(C)C1=O", "note": "(centres unmarked) [mephobarbital]", "half-life": "greater than 48 hours"},
      {"smiles": "Cc1cc2c(s1)Nc1ccccc1N=C2N1CCN(C)CC1", "note": "[olanzapine]", "half-life": "greater than 48 hours"},
      {"smiles": "CCC1(c2ccccc2)C(=O)NC(=O)NC1=O", "note": "[phenobarbital]", "half-life": "greater than 48 hours"},
      {"smiles": "CO[C@H]1C[C@@H]2CC[C@@H](C)[C@@](O)(O2)C(=O)C(=O)N2CCCC[C@H]2C(=O)O[C@H]([C@H](C)C[C@@H]2CC[C@@H](O)[C@H](OC)C2)CC(=O)[C@H](C)/C=C(\\C)[C@@H](O)[C@@H](OC)C(=O)[C@H](C)C[C@H](C)/C=C/C=C/C=C/1C", "note": "[sirolimus]", "half-life": "greater than 48 hours"}
    ]}
  ]
}
